Values from PubChem BioAssay AID1224830 (NIAID, 2016)
This is one part, drawn at random, of about 18,000 reagents. Of all reagents, about 2,900 (16%) got an active call. 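Calls are made per well; low scores hint the gene aids the LPS response, high scores that it dampens it.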 Repeated entries: four replicate wells of each siRNA pool.

Screen: 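Genes whose knock-down alters the TNF-alpha reporter response to LPS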 (primary screen)
System: human THP-1 monocytic leukaemia cells, TNF dual-luciferase reporter clone, PMA-differentiated to macrophage-like cells
Knock-down reagent: siRNA pool against human genes, 50 nM
Time to read-out: LPS for 4 h, given about 3 days after siRNA transfection
Conditions: bacterial LPS (TLR4 ligand), 10 ng/ml
Measurement: 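Ratio of firefly to renilla light, scaled to the plate median and expressed as a robust z-score per replicate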
Reading the numbers: TNF reporter robust z-score: higher = stronger TNF reporter response to LPS
Active means: 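Each well counts as active if its z-score is over 2.8 or under -1.5; controls are left without a call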

| target gene | TNF reporter robust z-score | outcome |
| --- | --- | --- |
| IL17RB (interleukin 17 receptor B) | 0.9 | inactive |
| IL17RB (interleukin 17 receptor B) | 0.39 | inactive |
| IL17RB (interleukin 17 receptor B) | 0.33 | inactive |
| IL17RB (interleukin 17 receptor B) | -0.04 | inactive |
| MYLK (myosin light chain kinase) | -0.33 | inactive |
| MYLK (myosin light chain kinase) | -0.35 | inactive |
| MYLK (myosin light chain kinase) | -0.34 | inactive |
| MYLK (myosin light chain kinase) | -1.08 | inactive |
| FBP1 (fructose-bisphosphatase 1) | -0.91 | inactive |
| FBP1 (fructose-bisphosphatase 1) | -0.73 | inactive |
| FBP1 (fructose-bisphosphatase 1) | -0.2 | inactive |
| FBP1 (fructose-bisphosphatase 1) | -0.49 | inactive |
| TIPE2 (TNF alpha induced protein 8 like 2) | 0.04 | inactive |
| TIPE2 (TNF alpha induced protein 8 like 2) | 0.36 | inactive |
| TIPE2 (TNF alpha induced protein 8 like 2) | -0.25 | inactive |
| TIPE2 (TNF alpha induced protein 8 like 2) | -0.04 | inactive |
| PRSS54 (serine protease 54) | -0.32 | inactive |
| PRSS54 (serine protease 54) | 0.35 | inactive |
| PRSS54 (serine protease 54) | 0.25 | inactive |
| PRSS54 (serine protease 54) | 0.1 | inactive |
| C1orf141 (chromosome 1 open reading frame 141) | 2.45 | inactive |
| C1orf141 (chromosome 1 open reading frame 141) | 1.92 | inactive |
| C1orf141 (chromosome 1 open reading frame 141) | 2.22 | inactive |
| C1orf141 (chromosome 1 open reading frame 141) | 2.27 | inactive |
| SPRR3 (small proline rich protein 3) | -0.94 | inactive |
| SPRR3 (small proline rich protein 3) | 1.54 | inactive |
| SPRR3 (small proline rich protein 3) | 0.18 | inactive |
| SPRR3 (small proline rich protein 3) | 3.64 | active |
| TNFSF10 (TNF superfamily member 10) | 0.84 | inactive |
| TNFSF10 (TNF superfamily member 10) | 1.16 | inactive |
| TNFSF10 (TNF superfamily member 10) | -0.12 | inactive |
| TNFSF10 (TNF superfamily member 10) | 1.03 | inactive |
| MAST4 | 0.4 | inactive |
| MAST4 | 0.83 | inactive |
| MAST4 | 0.44 | inactive |
| MAST4 | 0.48 | inactive |
| NOP58 (NOP58 ribonucleoprotein) | 2.02 | inactive |
| NOP58 (NOP58 ribonucleoprotein) | 1.89 | inactive |
| NOP58 (NOP58 ribonucleoprotein) | 1.46 | inactive |
| NOP58 (NOP58 ribonucleoprotein) | -0.57 | inactive |
| NOL11 (nucleolar protein 11) | 0.44 | inactive |
| NOL11 (nucleolar protein 11) | 0.27 | inactive |
| NOL11 (nucleolar protein 11) | 0.37 | inactive |
| NOL11 (nucleolar protein 11) | 0.97 | inactive |
| PRKAR2B | -0.08 | inactive |
| PRKAR2B | -1.02 | inactive |
| PRKAR2B | -0.95 | inactive |
| PRKAR2B | -1.07 | inactive |
| TPST1 (tyrosylprotein sulfotransferase 1) | 0.49 | inactive |
| TPST1 (tyrosylprotein sulfotransferase 1) | -1 | inactive |
| TPST1 (tyrosylprotein sulfotransferase 1) | -0.51 | inactive |
| TPST1 (tyrosylprotein sulfotransferase 1) | -0.49 | inactive |
| TAB3 (TGF-beta activated kinase 1 (MAP3K7) binding protein 3) | -1.6 | active |
| TAB3 (TGF-beta activated kinase 1 (MAP3K7) binding protein 3) | -1.3 | inactive |
| TAB3 (TGF-beta activated kinase 1 (MAP3K7) binding protein 3) | -1.32 | inactive |
| TAB3 (TGF-beta activated kinase 1 (MAP3K7) binding protein 3) | -0.92 | inactive |
| KIF7 (kinesin family member 7) | -0.93 | inactive |
| KIF7 (kinesin family member 7) | -1 | inactive |
| KIF7 (kinesin family member 7) | -1.78 | active |
| KIF7 (kinesin family member 7) | -1.02 | inactive |
| BMI1 (BMI1 proto-oncogene, polycomb ring finger) | -1.18 | inactive |
| BMI1 (BMI1 proto-oncogene, polycomb ring finger) | 0.2 | inactive |
| BMI1 (BMI1 proto-oncogene, polycomb ring finger) | -0.53 | inactive |
| BMI1 (BMI1 proto-oncogene, polycomb ring finger) | 0.34 | inactive |
| GRK6 (G protein-coupled receptor kinase 6) | -0.29 | inactive |
| GRK6 (G protein-coupled receptor kinase 6) | 0.04 | inactive |
| GRK6 (G protein-coupled receptor kinase 6) | -0.37 | inactive |
| GRK6 (G protein-coupled receptor kinase 6) | -0.8 | inactive |
| SLC34A1 | 1.46 | inactive |
| SLC34A1 | 1.08 | inactive |
| SLC34A1 | 1.26 | inactive |
| SLC34A1 | 0.95 | inactive |
| SLX4 (SLX4 structure-specific endonuclease subunit) | -1.46 | inactive |
| SLX4 (SLX4 structure-specific endonuclease subunit) | -1.09 | inactive |
| SLX4 (SLX4 structure-specific endonuclease subunit) | -1.37 | inactive |
| SLX4 (SLX4 structure-specific endonuclease subunit) | -1 | inactive |
| PLAC8L1 (PLAC8 like 1) | -1.25 | inactive |
| PLAC8L1 (PLAC8 like 1) | -0.98 | inactive |
| PLAC8L1 (PLAC8 like 1) | 0.32 | inactive |
| PLAC8L1 (PLAC8 like 1) | -0.49 | inactive |
| SSH2 (slingshot protein phosphatase 2) | -0.27 | inactive |
| SSH2 (slingshot protein phosphatase 2) | 0.4 | inactive |
| SSH2 (slingshot protein phosphatase 2) | 0.15 | inactive |
| SSH2 (slingshot protein phosphatase 2) | -0.67 | inactive |
| HLCS (holocarboxylase synthetase) | -0.98 | inactive |
| HLCS (holocarboxylase synthetase) | -0.24 | inactive |
| HLCS (holocarboxylase synthetase) | -0.61 | inactive |
| HLCS (holocarboxylase synthetase) | -0.28 | inactive |
| BCL2L10 (BCL2 like 10) | -0.01 | inactive |
| BCL2L10 (BCL2 like 10) | 0.51 | inactive |
| BCL2L10 (BCL2 like 10) | 0.44 | inactive |
| BCL2L10 (BCL2 like 10) | 0.27 | inactive |
| NIPAL3 (NIPA like domain containing 3) | 1.54 | inactive |
| NIPAL3 (NIPA like domain containing 3) | -0.05 | inactive |
| NIPAL3 (NIPA like domain containing 3) | -0.79 | inactive |
| NIPAL3 (NIPA like domain containing 3) | 0.46 | inactive |
| ATP6V1D (ATPase H+ transporting V1 subunit D) | -0.41 | inactive |
| ATP6V1D (ATPase H+ transporting V1 subunit D) | 1.03 | inactive |
| ATP6V1D (ATPase H+ transporting V1 subunit D) | 0.25 | inactive |
| ATP6V1D (ATPase H+ transporting V1 subunit D) | 1.38 | inactive |
| FAT2 (FAT atypical cadherin 2) | -1.04 | inactive |
| FAT2 (FAT atypical cadherin 2) | -0.94 | inactive |
| FAT2 (FAT atypical cadherin 2) | -1.36 | inactive |
| FAT2 (FAT atypical cadherin 2) | -0.57 | inactive |
| GRIN3B (glutamate ionotropic receptor NMDA type subunit 3B) | -1.14 | inactive |
| GRIN3B (glutamate ionotropic receptor NMDA type subunit 3B) | -0.74 | inactive |
| GRIN3B (glutamate ionotropic receptor NMDA type subunit 3B) | -0.82 | inactive |
| GRIN3B (glutamate ionotropic receptor NMDA type subunit 3B) | -0.88 | inactive |
| DIAPH1 (diaphanous related formin 1) | -0.64 | inactive |
| DIAPH1 (diaphanous related formin 1) | -0.62 | inactive |
| DIAPH1 (diaphanous related formin 1) | -0.4 | inactive |
| DIAPH1 (diaphanous related formin 1) | -0.77 | inactive |

15 successive entries from above, for reference:
| target gene | TNF reporter robust z-score | outcome |
| --- | --- | --- |
| NOL11 (nucleolar protein 11) | 0.37 | inactive |
| NOL11 (nucleolar protein 11) | 0.97 | inactive |
| PRKAR2B | -0.08 | inactive |
| PRKAR2B | -1.02 | inactive |
| PRKAR2B | -0.95 | inactive |
| PRKAR2B | -1.07 | inactive |
| TPST1 (tyrosylprotein sulfotransferase 1) | 0.49 | inactive |
| TPST1 (tyrosylprotein sulfotransferase 1) | -1 | inactive |
| TPST1 (tyrosylprotein sulfotransferase 1) | -0.51 | inactive |
| TPST1 (tyrosylprotein sulfotransferase 1) | -0.49 | inactive |
| TAB3 (TGF-beta activated kinase 1 (MAP3K7) binding protein 3) | -1.6 | active |
| TAB3 (TGF-beta activated kinase 1 (MAP3K7) binding protein 3) | -1.3 | inactive |
| TAB3 (TGF-beta activated kinase 1 (MAP3K7) binding protein 3) | -1.32 | inactive |
| TAB3 (TGF-beta activated kinase 1 (MAP3K7) binding protein 3) | -0.92 | inactive |
| KIF7 (kinesin family member 7) | -0.93 | inactive |
